The whole screen tested about 220,000 compounds, of which about 2,400 (1.1%) were called active. The inconclusive results got no clear call from the source; some entries with a clear call stand among them for comparison. Calls come from the whole dose curve; as a rule, active = well fitted inhibition curve with a large enough effect; inconclusive = small, poorly fitted or top-dose-only effect, or effect the other way; inactive = no such curve, though single readings can be large or run the other way. Potencies of inconclusive entries are doubtful fits and often do not repeat.
Assay: qHTS Multiplex Assay to Identify Dual Action Probes in a Cell Model of Huntington: Aggregate Formation (GFP); note: nearly all actives have a fitted effect of over 60% in size
Details: PC12 HttQ103-GFP aggregates, Acumen cytometry, 40 h; activity change, negative = inhibition: at 46.1 µM (top of the series) unless noted
Summary of the method: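 Read-out: GFP aggregate count by laser scanning cytometer (488 nm excitation, 500-530 nm emission, 1–25 µm objects >6 SD above background). Cells: PC12, inducible HTTex1-Q103-GFP, 100 nM tebufenozide; compounds titrated.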
% is set by controls: 0 for no effect and ±100 for the full control effect; potency is the fitted concentration of half-maximal effect.

Row | SMILES | Potency | activity change, negative = inhibition
1 | O=C(Nc1ccc(C(=O)N2CCCCC2)cc1)c1ccc(Br)cc1 | inconclusive: 12.6 µM [inhibitor, partial curve] | –
2 | O=C1NC(=Nc2cccc(Cl)c2)SC1Cc1cccc(Cl)c1Cl (centres undefined) | inconclusive: 35.5 µM [inhibitor, single point] | –
3 | COc1ccc(-c2nn(-c3ccccc3)cc2CO)cc1 | inconclusive: 35.5 µM [inhibitor, single point] | –
4 | CCN1C(=O)c2cccc3c(S(=O)(=O)Nc4nc(C)cs4)ccc1c23 | – | inactive: 16.7%
5 | CC(=O)Oc1cccc(/C=c2\sc3nc(-c4ccco4)nn3c2=O)c1 | inconclusive: 2.24 µM [inhibitor, partial curve] | –
6 | CCOc1cc(/C=N/O)ccc1OCC(=O)Nc1cccc(C)c1 | inconclusive: 22.4 µM [activator, single point] | –
7 | CCN(CC)c1ccc(N=Cc2c(C)[nH]c3ccccc23)cc1 | active: 11.2 µM | –
8 | COc1ccccc1COCC(O)CN(Cc1ccco1)Cc1ccccc1O (centres undefined) | inconclusive: 22.4 µM [inhibitor, single point] | –
9 | C[n+]1ccccc1N1CCN(c2ccccc2Cl)CC1 | inconclusive: 11.2 µM [inhibitor, partial curve] | –
10 | Cc1ccccc1NC1=NCC(c2ccc([N+](=O)[O-])cc2)S1 (centres undefined) | – | inactive: -11.7%
11 | CC(NC(=O)c1ccccc1NC(=O)c1ccncc1)c1ccccc1 (centres undefined) | – | inactive: 2.38% [at 9.22 µM]
12 | Cc1ccc2nc(CSc3nnc(Cc4cccs4)n3C3CCCCC3)cc(=O)n2c1 | inconclusive: 1.26 µM [inhibitor, partial curve] | –
13 | CCNc1ccc(C(=O)NN=C2CCCC2)cc1[N+](=O)[O-] | inconclusive: 0.708 µM [inhibitor, partial curve] | –
14 | Cc1cc(C)c(C#N)c(SCC(=O)C(C)(C)C)n1 | – | inactive: -23.8%
15 | COc1ccc2nc(SCC(=O)Nc3nccs3)[nH]c2c1 | inconclusive: 1.26 µM [activator, single point] | –
16 | S=c1[nH]nc(-c2ccccc2)n1Cc1ccccc1 | – | inactive: 19%
17 | Cc1ccc(SCCC(=O)N2CCC(C)CC2)cc1 | – | inactive: -3.52%
18 | c1csc(-c2noc(COc3ccc4c(c3)CCCC4)n2)c1 | inconclusive: 28.2 µM [inhibitor, single point] | –
19 | CC(=O)CSc1nc(N)c(C#N)c(-c2cccs2)c1C#N | active: 14.1 µM | –
20 | CC1CN=C2C(C(=O)Nc3ccccc3)=C(O)CC(c3ccccc3)N21 (centres undefined) | inconclusive: 35.5 µM [activator, single point] | –
21 | CCOC(=O)c1c(C)[nH]c(C(=O)COC(=O)/C=C/c2ccc(OC(F)F)cc2)c1C | inconclusive: 6.31 µM [activator, partial curve] | –
22 | CC(C)Cc1csc(NC(=O)c2ccc(F)cc2)c1C(=O)O | inconclusive: 5.62 µM [inhibitor, single point] | –
23 | Cc1csc(NC(=O)CSc2ccc(-c3ccccn3)nn2)n1 | inconclusive: 10 µM [inhibitor, partial curve] | –

Row | SMILES | Potency | activity change, negative = inhibition
24 | CC1(C)SC(=S)N(NC(=O)Nc2cccc3ccccc23)C1N(O)C(=O)Nc1ccccc1 (centres undefined) | inconclusive: 22.4 µM [inhibitor, single point] | –
25 | O=C(Nc1ccncc1)c1cncc(Br)c1 | inconclusive: 3.16 µM [inhibitor, single point] | –
26 | Brc1ccc(CSc2nnc(Cc3c[nH]c4ccccc34)o2)cc1 | inconclusive: 25.1 µM [inhibitor, single point] | –
27 | CCn1c(CNc2ccc(Cl)cc2)nnc1SCc1ccc(Cl)cc1 | inconclusive: 35.5 µM [inhibitor, single point] | –
28 | O=c1cc(O)c2sc3nc(-c4cccnc4)cc(C(F)(F)F)c3c2[nH]1 | – | inactive: 0.558%
29 | Cc1ccc(-n2nnnc2-c2cnc(-c3cccnc3)nc2C(F)(F)F)cc1 | inconclusive: 11.2 µM [inhibitor, single point] | –
30 | CC(C)Cn1[nH]c2c3c(ccc2c1=O)C(=O)c1ccccc1C3=O | active: 22.4 µM | –
31 | Brc1ccccc1-c1nnc(COc2cccc3cccnc23)o1 | – | inactive: -6.11%
32 | Cc1cc(C)n(CCc2nc(-c3ccc(-c4ccccc4)cc3)cs2)n1 | inconclusive: 14.1 µM [inhibitor, partial curve] | –
33 | COc1ccc(OCc2n[nH]c(=S)n2Cc2ccco2)cc1 | – | inactive: 9.34%
34 | COc1ccc(CCNc2nc(-c3sc(C)nc3C)cs2)cc1OC | inconclusive: 11.2 µM [inhibitor, single point] | –
35 | Cn1c(=O)c2c(nc(NCc3ccco3)n2Cc2ccc(Cl)cc2Cl)n(C)c1=O | inconclusive: 0.316 µM [inhibitor, partial curve] | –
36 | CSc1ccc(C(C(C(=O)c2cccs2)N2CCOCC2)N2CCOCC2)cc1 (centres undefined) | inconclusive: 11.2 µM [activator, single point] | –
37 | O=C1C(=O)c2c(C(=O)c3ccccc3)coc2-c2ccccc21 | inconclusive: 35.5 µM [inhibitor, single point] | –
38 | COc1cc(CCN2C(=O)c3cccc4cccc(c34)C2=O)c(S(=O)(=O)N2CCCCCC2)cc1OC | inconclusive: 1.58 µM [inhibitor, full curve, poor fit] | –
39 | O=C(CC(c1ccccc1)c1ccccc1)Nc1ccc(Cl)cn1 | inconclusive: 12.6 µM [inhibitor, partial curve] | –
40 | CCN(CC)c1ccc(/C=N/NC(=O)c2ccoc2C)c(O)c1 | inconclusive: 3.55 µM [inhibitor, partial curve] | –
41 | CCOP(=O)(c1ccccc1)c1nc(-c2ccccc2C)oc1N1CCCCC1 (centres undefined) | inconclusive: 35.5 µM [inhibitor, single point] | –
42 | COc1ccc2c(c1OC)C(=O)OC2Nn1cncn1 (centres undefined) | inconclusive: 1 µM [inhibitor, full curve] | –
43 | CCCC(C(=O)n1nc(C)cc1C)C(NS(=O)(=O)c1ccc(C)cc1)c1ccccc1 (centres undefined) | inconclusive: 15.8 µM [inhibitor, single point] | –
44 | Cc1ccccc1C(=O)NCCCCc1ccccc1 | – | inactive: -30.6%
45 | O=S(=O)(Nc1nc2c(s1)CCCC2)c1ccc2ccccc2c1 | active: 11.2 µM | –
46 | CCCn1c2c(c(=N)c3c1CCC3)CCCC2 | inconclusive: 35.5 µM [inhibitor, partial curve, poor fit] | –

Complete entries as entered above. Order of values: Potency | activity change, negative = inhibition
CSc1ccc(C(C(C(=O)c2cccs2)N2CCOCC2)N2CCOCC2)cc1 (centres undefined) as listed: inconclusive: 11.2 µM [activator, single point] | –
Brc1ccccc1-c1nnc(COc2cccc3cccnc23)o1 as listed: – | inactive: -6.11%
CCOP(=O)(c1ccccc1)c1nc(-c2ccccc2C)oc1N1CCCCC1 (centres undefined) as listed: inconclusive: 35.5 µM [inhibitor, single point] | –

(continued)

Row | SMILES | Potency | activity change, negative = inhibition
47 | CCOC(=O)c1ccc2c(c1)[n+](CC)c(C)n2-c1ccccc1 | – | inactive: 11.8% [at 9.22 µM]
48 | COc1ccc(Cn2c(-c3ccc(Cl)cc3)c[n+]3ccccc23)cc1 | inconclusive: 15.8 µM [inhibitor, partial curve] | –
49 | CCOC(=O)N1CCN(c2ccc(N3C(=O)CCCC3=O)cc2[N+](=O)[O-])CC1 | – | inactive: -10%
50 | COC(=O)CSc1nc2c(c(-c3ccco3)c1C#N)CCCC2 | inconclusive: 6.31 µM [activator, single point] | –
51 | O=C(N/N=C/c1ccccc1Cl)c1cccc(F)c1 | inconclusive: 35.5 µM [activator, single point] | –
52 | CCOc1ccccc1NC(=O)NC(=O)N(C)S(=O)(=O)c1ccc(C)cc1 | inconclusive: 0.562 µM [activator, partial curve, poor fit] | –
53 | O=C(Nc1nc2ccc(S(=O)(=O)N3CCCC3)cc2s1)C1CCCCC1 | – | inactive: -11.9%
54 | CC1=C(C(=O)Nc2ccccc2C(F)(F)F)C(c2sccc2C)NC(=S)N1 (centres undefined) | inconclusive: 2.51 µM [inhibitor, partial curve] | –
55 | Fc1ccc(Nc2c3c(nc4ccccc24)CCC3)cc1 | inconclusive: 11.2 µM [inhibitor, single point] | –
56 | Cc1ccsc1C1Nc2ccc3ncccc3c2C2=C1C(=O)CCC2 (centres undefined) | inconclusive: 35.5 µM [activator, partial curve] | –
57 | COc1ccc(-n2cnc3cc(NS(=O)(=O)c4ccc(C)cc4)ccc32)cc1 | inconclusive: 11.2 µM [inhibitor, single point] | –
58 | CCOc1c(Br)cc(CNCc2cccs2)cc1OC | inconclusive: 35.5 µM [activator, single point] | –
59 | O=C(CC12CC3CC(CC(C3)C1)C2)NC(=S)NCc1ccco1 | inconclusive: 22.4 µM [inhibitor, single point] | –
60 | CC(CC(=O)Nc1ncc([N+](=O)[O-])s1)c1ccccc1 (centres undefined) | – | inactive: 2.29% [at 9.22 µM]
61 | Cc1[nH]n(-c2cccc(Cl)c2)c(=O)c1-c1ccccc1 | inconclusive: 35.5 µM [inhibitor, single point] | –
62 | O=S(=O)(NCc1cc(-c2ccc(Cl)cc2)no1)c1ccc(Cl)cc1 | inconclusive: 35.5 µM [inhibitor, single point] | –
63 | Cc1c(C(=O)N2CCc3ccccc32)oc2c1C(=O)CC(C)(C)C2 | inconclusive: 3.16 µM [inhibitor, single point] | –
64 | O=C(Nc1ccccc1C(=O)NCCN1CCOCC1)c1ccc(Cl)cc1Cl | inconclusive: 5.62 µM [activator, single point] | –
65 | O=C(Nc1cccc(Cl)c1)c1ccc(F)c(S(=O)(=O)NCc2cccs2)c1 | inconclusive: 11.2 µM [inhibitor, partial curve, poor fit] | –
66 | CC1=N/C(=C\c2ccc3c(c2)OCO3)C(=O)N1c1ccc(C(=O)O)cc1 | – | inactive: 9.45%
67 | CC(OC(=O)CCC(=O)c1cccs1)C(=O)Nc1ccccc1[N+](=O)[O-] (centres undefined) | inconclusive: 6.31 µM [activator, single point] | –
68 | CCC(=O)Nc1nc2ccccc2n1Cc1ccccc1C | inconclusive: 11.2 µM [inhibitor, partial curve] | –
69 | COc1cccc(S(=O)(=O)N2CCN(C(=O)c3ccco3)CC2)c1 | – | inactive: -11.4% [at 9.22 µM]

From PubChem BioAssay AID1688 (National Center for Advancing Translational Sciences (NCATS), 2009)
